These are yes or no findings as the source states them, for the method shown. Binding can be weak; no strength is given. Tags and fused reporters may be left off the sequences shown.
Target: Xanthomonas outer protein S (XopS) fused to the GAL4 DNA-binding domain (Xanthomonas campestris pv. vesicatoria (strain 85-10))
Test: two-hybrid; direct assay: XopS fused to GAL4 DNA-BD, WRKY proteins fused to GAL4 AD, yeast strain Y190; growth on -LTH (HIS3 reporter) and LacZ filter assay

B1: Arabidopsis thaliana WRKY40 fused to the GAL4 activation domain (protein, UniProt Q9SAH7 1-302)
chain: MDQYSSSLVDTSLDLTIGVTRMRVEEDPPTSALVEELNRVSAENKKLSEMLTLMCDNYNVLRKQLMEYVNKSNITERDQISPPKKRKSPAREDAFSCAVIGGVSESSSTDQDEYLCKKQREETVVKEKVSRVYYKTEASDTTLVVKDGYQWRKYGQKVTRDNPSPRAYFKCACAPSCSVKKKVQRSVEDQSVLVATYEGEHNHPMPSQIDSNNGLNRHISHGGSASTPVAANRRSSLTVPVTTVDMIESKKVTSPTSRIDFPQVQKLLVEQMASSLTKDPNFTAALAAAVTGKLYQQNHTEK
  binding: binds
